In PMC6529775:
These are yes or no findings as the source states them, for the method shown. In cells and extracts the contact can be indirect. Some binding calls cover weakened binding; strength is not graded here.

Sequences of proteins named here, by UniProt entry; tags and fusion partners are left off.
UniProt Q8R4B8: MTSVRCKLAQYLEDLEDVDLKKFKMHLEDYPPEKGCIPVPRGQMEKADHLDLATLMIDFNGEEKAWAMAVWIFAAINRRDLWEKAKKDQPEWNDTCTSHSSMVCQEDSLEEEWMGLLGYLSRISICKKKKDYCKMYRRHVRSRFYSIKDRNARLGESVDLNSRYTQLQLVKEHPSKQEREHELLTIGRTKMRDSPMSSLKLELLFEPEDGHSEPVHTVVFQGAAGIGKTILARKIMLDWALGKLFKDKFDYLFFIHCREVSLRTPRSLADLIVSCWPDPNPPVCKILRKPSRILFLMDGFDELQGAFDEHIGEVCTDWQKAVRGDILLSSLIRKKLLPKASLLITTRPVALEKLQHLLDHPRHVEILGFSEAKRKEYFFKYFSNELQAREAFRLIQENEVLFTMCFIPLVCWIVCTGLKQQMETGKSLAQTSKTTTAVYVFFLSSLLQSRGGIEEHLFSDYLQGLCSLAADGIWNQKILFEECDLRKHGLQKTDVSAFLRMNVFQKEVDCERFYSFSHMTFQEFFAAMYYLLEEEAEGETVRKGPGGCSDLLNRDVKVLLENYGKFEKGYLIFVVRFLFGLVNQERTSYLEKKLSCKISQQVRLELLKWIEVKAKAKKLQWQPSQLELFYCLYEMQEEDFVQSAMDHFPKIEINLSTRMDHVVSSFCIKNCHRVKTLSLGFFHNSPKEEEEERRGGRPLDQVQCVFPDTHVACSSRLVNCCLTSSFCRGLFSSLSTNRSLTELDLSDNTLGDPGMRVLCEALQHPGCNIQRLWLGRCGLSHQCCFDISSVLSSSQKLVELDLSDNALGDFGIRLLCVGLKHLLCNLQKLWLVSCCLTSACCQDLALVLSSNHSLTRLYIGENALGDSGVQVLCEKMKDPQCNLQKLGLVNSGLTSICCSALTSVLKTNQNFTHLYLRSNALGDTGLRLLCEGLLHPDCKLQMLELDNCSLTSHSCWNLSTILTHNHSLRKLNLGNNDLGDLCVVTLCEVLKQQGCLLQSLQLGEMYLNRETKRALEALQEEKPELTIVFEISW

T1: Thioredoxin-interacting protein (TXNIP) (mouse (endogenous in heart tissue)) (UniProt Q8BG60)
T1 sequence: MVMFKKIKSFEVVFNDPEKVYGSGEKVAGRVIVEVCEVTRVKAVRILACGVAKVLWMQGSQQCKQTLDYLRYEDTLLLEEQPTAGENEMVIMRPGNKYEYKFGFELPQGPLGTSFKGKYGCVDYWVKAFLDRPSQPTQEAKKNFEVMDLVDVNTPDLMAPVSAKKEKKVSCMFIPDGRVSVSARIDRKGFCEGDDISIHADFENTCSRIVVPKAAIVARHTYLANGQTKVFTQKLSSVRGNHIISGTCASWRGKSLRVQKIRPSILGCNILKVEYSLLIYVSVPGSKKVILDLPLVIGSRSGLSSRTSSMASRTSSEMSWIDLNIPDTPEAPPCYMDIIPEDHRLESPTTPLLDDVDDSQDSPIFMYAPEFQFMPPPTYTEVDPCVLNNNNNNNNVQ

B1: thioredoxin (Trx) (protein, UniProt P10639 1-105)
chain: MVKLIESKEAFQEALAAAGDKLVVVDFSATWCGPCKMIKPFFHSLCDKYSNVVFLEVDVDDCQDVAADCEVKCMPTFQFYKKGQKVGEFSGANKEKLEASITEYA

Biological target: T1, Thioredoxin-interacting protein (TXNIP) (mouse (endogenous in heart tissue))
Assay: co-IP; 1 mg total protein lysate of mouse left ventricle tissue (WT or STING knockout, sham or LPS 10 mg/kg for 12 h); IP with anti-TXNIP (rabbit IgG control), Protein A/G PLUS-Agarose, 4 °C; blotted with anti-NLRP3, anti-Trx and anti-TXNIP

Molecule	binding
NOD-like receptor protein 3 (NLRP3) (from UniProt Q8R4B8 1-1033)	binds
B1	binds
